According to article PMC1831719, “Elucidating the Ticking of an In Vitro Circadian Clockwork” (PLoS Biology, 2007):
Results are given in words; binding and its absence hold for the method and conditions named. Some results given as binding are weak or reduced against the parent protein; the word gives no strength.

What was measured:
KaiC (S. elongatus) [1] = target: T1, KaiC (S. elongatus) (UniProt Q79PF4); assay: negative-stain electron microscopy with image classification; defined samples for comparison: KaiC alone, KaiA mixed with KaiC, KaiB mixed with KaiC (30 °C, examined at various times; 6 h for KaiB•KaiC; reconstruction at about 20 Å); both purified
T1 sequence: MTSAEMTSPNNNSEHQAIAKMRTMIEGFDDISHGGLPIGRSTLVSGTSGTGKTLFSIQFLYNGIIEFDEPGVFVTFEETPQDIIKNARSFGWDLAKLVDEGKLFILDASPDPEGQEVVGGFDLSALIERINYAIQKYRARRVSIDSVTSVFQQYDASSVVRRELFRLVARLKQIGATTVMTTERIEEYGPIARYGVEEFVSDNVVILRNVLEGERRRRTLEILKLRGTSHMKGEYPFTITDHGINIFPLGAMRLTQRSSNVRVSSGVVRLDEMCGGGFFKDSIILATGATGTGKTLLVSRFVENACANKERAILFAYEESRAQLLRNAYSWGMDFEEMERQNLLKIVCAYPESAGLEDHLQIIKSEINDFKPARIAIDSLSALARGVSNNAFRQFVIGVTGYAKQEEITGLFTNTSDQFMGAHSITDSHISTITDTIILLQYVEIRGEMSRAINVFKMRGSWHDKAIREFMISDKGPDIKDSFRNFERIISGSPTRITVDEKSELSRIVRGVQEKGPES

KaiC (S. elongatus) [2] = target: T1, KaiC (S. elongatus); assay: negative-stain electron microscopy with image classification; aliquots every 3 h from the oscillating KaiA/KaiB/KaiC mixture (50 ng/ul KaiA, 50 ng/ul KaiB, 200 ng/ul KaiC, 1 mM ATP, 30 °C); 0.75% uranyl formate; particles sorted into four meta classes at seven phases; both purified
KaiC (S. elongatus) [3] = target: T1, KaiC (S. elongatus); assay: native gel or EMSA; 2-D blue-native/SDS-PAGE of aliquots of the KaiABC cycling reaction at 18, 24, 33 and 39 h; BN-PAGE on 4%-20% Bis-Tris gel at 4-6 °C for 10 h with 1 mM ATP and 5 mM MgCl2 in the cathode buffer; Coomassie stain, densitometry; both purified

binding (KaiC (S. elongatus) [1]): binds
binding (KaiC (S. elongatus) [2]): binds
binding (KaiC (S. elongatus) [3]): binds
B1: KaiA (protein, UniProt Q79PF6 1-284)
chain: MLSQIAICIWVESTAILQDCQRALSADRYQLQVCESGEMLLEYAQTHRDQIDCLILVAANPSFRAVVQQLCFEGVVVPAIVVGDRDSEDPDEPAKEQLYHSAELHLGIHQLEQLPYQVDAALAEFLRLAPVETMADHIMLMGANHDPELSSQQRDLAQRLQERLGYLGVYYKRDPDRFLRNLPAYESQKLHQAMQTSYREIVLSYFSPNSNLNQSIDNFVNMAFFADVPVTKVVEIHMELMDEFAKKLRVEGRSEDILLDYRLTLIDVIAHLCEMYRRSIPRET
